Measurements taken from patent US9523081B2, “Method for enhancing therapeutic effect of stem cells on autoimmune diseases, cardiovascular diseases, and/or hematological diseases” (GWO XI STEM CELL APPLIED TECHNOLOGY CO., LTD., priority 2014, dated 2016).

Tested on: GAPDH
Experiment: RT-PCR gene expression of GAPDH (control gene) in ligustilide-treated ADSCs
Format: cell-based
Conditions: 24 hours
Protocol: ADSCs were cultured in the K-SFM as prepared in Example 1 at 37° C. in 5% CO2. The ADSCs were divided into […], and each group was treated with different concentrations (0, 0.625, 1.25, 2.5, 5 and 10 μg/ml) of (Z)-ligustilide for 24 hours, respectively.
The culture medium were removed from each group of stem cells in Experiment (1), then 1 ml of TRIzol reagent (Invitrogen) was added into each well and incubated at room temperature for 5 minutes. The stem cells were scraped by using a spatula and placed into a 1.5 ml microtube. Then, the cells were lysed completely, and 0.2 ml of trichloromethane (CHCl3) was added into the microtube. The microtube was shaken up and down for 15 seconds and incubated at room temperature for 2 to 3 minutes. The mixture was centrifuged (at 12000 g for 15 minutes at 4° C.). The supernatant was transferred into another 1.5 ml microtube, and 0.5 ml of isopropanol was added therein and mixed completely. The mixture was incubated at room temperature for 10 minutes and then centrifuged (at 12000 g for 10 minutes at 4° C.). The supernatant was removed. The remained sediment was washed with 1 ml of 75% ethanol-containing DEPC water (i.e. diethylpyrocarbonate-treated H2O) and centrifuged (7500 g at 4° C. for 5 minutes) again. The supernatant was removed. The remained sediment was dried by vacuum-pumping. The dried sediment was dissolved in about 0.01 ml to 0.02 ml of DEPC water to obtain total RNA of ADSCs of experimental group and blank group, respectively. The absorbance at a wavelength of 260 nm (OD260) of the samples were determined by a spectrophotometer (DU-800, Beckman) to evaluate the concentration of RNA. Then, the RNA was stored at −80° C. and used in the following Experiment (3).
The effects of ligustilide on increasing the expression of differentiation-promoting genes (e.g., BDNF and NURR1), increasing the expression of homing-promoting genes (e.g., CXCR4 and SDF1αβ), and decreasing the expression of inflammatory genes (e.g., IL-6 and IL-8) was analyzed by reverse transcription polymerase chain reaction (RT-PCR), wherein the gene expression of glyceraldehyde 3-phosphate dehydrogenase (GAPDH) was served as a control group, and the steps were described as follows.
The total RNA provided in the above Experiment (2) was reverse transcribed into cDNA. 2.5 μl of each primer (10 pM) shown in Table 1A, 7.5 μl of ddH2O, and 12.5 μl of EconoTaq® PLUS GREEN 2X Master Mix (Lucigen, Middleton, Wis., USA) were mixed with 2.5 μl of the cDNA. The mixture was placed in a RT-PCR machine. […]
The obtained RT-PCR product was analyzed by 1.5% agarose gel electrophoresis for 30 minutes (voltage: 100 volts (V)). […]

CCC/C=C1\OC(=O)C2=C1CCC=C2 [ligustilide, (Z)-ligustilide]
GAPDH expression level (Image J), control gene (0.625 μg/ml ligustilide): 6892.26 | GAPDH expression level (Image J), control gene (1.25 μg/ml ligustilide): 7615.03 | GAPDH expression level (Image J), control gene (2.5 μg/ml ligustilide): 8186.79 | GAPDH expression level (Image J), control gene (5 μg/ml ligustilide): 8265.67
